{"source": "patent US20060234373A1", "about": "“Treatment for diabetes” (priority 2002, published 2006)", "key": {"[1]": {"test_system": "NOD mice with chronic insulin-dependent diabetes", "assay": "Fasting blood glucose and survival in NOD mice with chronic insulin-dependent diabetes", "type": "in vivo, mouse", "settings": "for Fasting blood glucose levels at day 28: 14 days after cessation of insulin"}, "[2]": {"test_system": "NOD mice with recent onset diabetes", "assay": "Fasting blood glucose and pancreatic insulin in NOD mice with recent onset diabetes", "type": "in vivo, mouse", "settings": "1 μg/kg/day i.p. once daily 14 days, day 35"}}, "note": "At least one structure is not confirmed: it was looked up by name or label, or the drawing left a doubt."}
{"molecule": "CSCC[C@@H](NC(=O)[C@@H](Cc1c[nH]c2ccccc12)NC(=O)CNC(=O)[C@@H](Cc1ccc(O)cc1)NC(=O)[C@@H](C)NC(=O)[C@@H](CCC(=O)O)NC(=O)[C@@H](CCC(=O)O)NC(=O)[C@@H](CCC(=O)O)NC(=O)[C@H](CCC(=O)O)NC(=O)[C@H](CCC(=O)O)NC(=O)[C@H](CC(C)C)NC(=O)[C@H](Cc1c[nH]c2ccccc12)NC(=O)[C@@H]1CCCN1C(=O)CNC(=O)[C@@H](N)CCC(=O)O)C(=O)N[C@H](CC(=O)O)C(=O)N[C@H](Cc1ccccc1)C(N)=O", "note": "[G1]", "values": [{"measurement": "Fasting blood glucose levels at day 28", "setting": "[1]; G1 1 μg/kg/day", "result": "remained elevated"}, {"measurement": "Fasting blood glucose levels day 0 to day 14", "setting": "[1]; G1 10 μg/kg/day, on insulin therapy", "result": "exhibited a decrease in FBG"}, {"measurement": "Fasting blood glucose levels at day 28", "setting": "[1]; G1 5 and 10 μg/kg/day", "result": "decrease of fasting blood glucose levels with increasing dose"}, {"measurement": "pancreatic insulin levels in comparison to pretreatment values", "setting": "[2]", "result": "significantly elevated levels"}, {"measurement": "Fasting blood glucose levels", "setting": "[2]; vehicle FBG doubled", "result": "remained close to values recorded at diabetes onset"}]}
